Data taken from article doi:10.1101/2024.04.03.587867.
Results are given in words; binding and its absence hold for the method and conditions named. Binding seen in cells or lysates may run through a third protein. These calls come from enrichment with a bait or labelling near it, and not all partners need be listed.

Columns and labels:
[1] = molecular target: FLAG-tagged SP110 ΔCARD (human); experiment: affinity purification with mass spectrometry
[2] = molecular target: FLAG-tagged full-length SP110 (speckled protein 110) (human); experiment: affinity purification with mass spectrometry

B1: SENP7, a deSUMOlyase (enzyme, UniProt Q9BQF6 1-1050)
chain: MDKRKLGRRPSSSEIITEGKRKKSSSDLSEIRKMLNAKPEDVHVQSPLSKFRSSERWTLPLQWERSLRNKVISLDHKNKKHIRGCPVTSKSSPERQLKVMLTNVLWTDLGRKFRKTLPRNDANLCDANKVQSDSLPSTSVDSLETCQKLEPLRQSLNLSERIPRVILTNVLGTELGRKYIRTPPVTEGSLSDTDNLQSEQLSSSSDGSLESYQNLNPHKSCYLSERGSQRSKTVDDNSAKQTAHNKEKRRKDDGISLLISDTQPEDLNSGSRGCDHLEQESRNKDVKYSDSKVELTLISRKTKRRLRNNLPDSQYCTSLDKSTEQTKKQEDDSTISTEFEKPSENYHQDPKLPEEITTKPTKSDFTKLSSLNSQELTLSNATKSASAGSTTETVENSNSIDIVGISSLVEKDENELNTIEKPILRGHNEGNQSLISAEPIVVSSDEEGPVEHKSSEILKLQSKQDRETTNENESTSESALLELPLITCESVQMSSELCPYNPVMENISSIMPSNEMDLQLDFIFTSVYIGKIKGASKGCVTITKKYIKIPFQVSLNEISLLVDTTHLKRFGLWKSKDDNHSKRSHAILFFWVSSDYLQEIQTQLEHSVLSQQSKSSEFIFLELHNPVSQREELKLKDIMTEISIISGELELSYPLSWVQAFPLFQNLSSKESSFIHYYCVSTCSFPAGVAVAEEMKLKSVSQPSNTDAAKPTYTFLQKQSSGCYSLSITSNPDEEWREVRHTGLVQKLIVYPPPPTKGGLGVTNEDLECLEEGEFLNDVIIDFYLKYLILEKASDELVERSHIFSSFFYKCLTRKENNLTEDNPNLSMAQRRHKRVRTWTRHINIFNKDYIFVPVNESSHWYLAVICFPWLEEAVYEDFPQTVSQQSQAQQSQNDNKTIDNDLRTTSTLSLSAEDSQSTESNMSVPKKMCKRPCILILDSLKAASVQNTVQNLREYLEVEWEVKLKTHRQFSKTNMVDLCPKVPKQDNSSDCGVYLLQYVESFFKDPIVNFELPIHLEKWFPRHVIKTKREDIRELILKLHLQQQKGSSS
With B1 the binding [1] was “binds” and the binding [2] was “binds”.
